# Test results as given in paper PMC5566719.
# Protein sequences, listed by entry. Tags and fused reporters are not part of them.
# UniProt Q9HAU4: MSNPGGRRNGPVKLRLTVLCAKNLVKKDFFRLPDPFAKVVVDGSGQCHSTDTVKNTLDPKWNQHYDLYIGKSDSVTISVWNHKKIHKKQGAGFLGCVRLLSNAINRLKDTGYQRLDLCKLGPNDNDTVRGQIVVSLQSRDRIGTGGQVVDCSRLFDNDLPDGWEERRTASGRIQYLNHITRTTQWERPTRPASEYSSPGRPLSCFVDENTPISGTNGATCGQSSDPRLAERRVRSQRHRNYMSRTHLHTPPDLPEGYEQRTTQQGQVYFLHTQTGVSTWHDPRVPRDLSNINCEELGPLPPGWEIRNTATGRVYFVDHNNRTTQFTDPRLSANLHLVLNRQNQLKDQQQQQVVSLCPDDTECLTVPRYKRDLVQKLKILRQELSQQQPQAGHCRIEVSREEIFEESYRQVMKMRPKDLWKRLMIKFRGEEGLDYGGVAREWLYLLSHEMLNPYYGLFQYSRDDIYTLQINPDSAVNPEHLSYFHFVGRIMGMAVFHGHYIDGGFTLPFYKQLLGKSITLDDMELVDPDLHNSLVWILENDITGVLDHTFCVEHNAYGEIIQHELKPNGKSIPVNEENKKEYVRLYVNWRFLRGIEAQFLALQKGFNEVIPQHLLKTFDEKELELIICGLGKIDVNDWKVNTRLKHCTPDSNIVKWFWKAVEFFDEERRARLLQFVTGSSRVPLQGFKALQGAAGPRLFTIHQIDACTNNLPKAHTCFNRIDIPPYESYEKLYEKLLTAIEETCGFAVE
# No constants are given. Whether binding was seen depends on the method and setting. Binding seen in cells or lysates may run through a third protein. Some binding calls cover weakened binding; strength is not graded here. Where a sequence is shown, tags or fusion partners need not be part of it.
# B1: TβRI (receptor, UniProt P36897 34-503)
# chain: LQCFCHLCTKDNFTCVTDGLCFVSVTETTDKVIHNSMCIAEIDLIPRDRPFVCAPSSKTGSVTTTYCCNQDHCNKIELPTTVKSSPGLGPVELAAVIAGPVCFVCISLMLMVYICHNRTVIHHRVPNEEDPSLDRPFISEGTTLKDLIYDMTTSGSGSGLPLLVQRTIARTIVLQESIGKGRFGEVWRGKWRGEEVAVKIFSSREERSWFREAEIYQTVMLRHENILGFIAADNKDNGTWTQLWLVSDYHEHGSLFDYLNRYTVTVEGMIKLALSTASGLAHLHMEIVGTQGKPAIAHRDLKSKNILVKKNGTCCIADLGLAVRHDSATDTIDIAPNHRVGTKRYMAPEVLDDSINMKHFESFKRADIYAMGLVFWEIARRCSIGGIHEDYQLPYYDLVPSDPSVEEMRKVVCEQKLRPNIPNRWQSCEALRVMAKIMRECWYANGAARLTALRIKKTLSQLSQQEGIKM
# B2: endogenous TRAF4 (protein, UniProt Q9BUZ4 1-470)
# chain: MPGFDYKFLEKPKRRLLCPLCGKPMREPVQVSTCGHRFCDTCLQEFLSEGVFKCPEDQLPLDYAKIYPDPELEVQVLGLPIRCIHSEEGCRWSGPLRHLQGHLNTCSFNVIPCPNRCPMKLSRRDLPAHLQHDCPKRRLKCEFCGCDFSGEAYESHEGMCPQESVYCENKCGARMMRRLLAQHATSECPKRTQPCTYCTKEFVFDTIQSHQYQCPRLPVACPNQCGVGTVAREDLPGHLKDSCNTALVLCPFKDSGCKHRCPKLAMARHVEESVKPHLAMMCALVSRQRQELQELRRELEELSVGSDGVLIWKIGSYGRRLQEAKAKPNLECFSPAFYTHKYGYKLQVSAFLNGNGSGEGTHLSLYIRVLPGAFDNLLEWPFARRVTFSLLDQSDPGLAKPQHVTETFHPDPNWKNFQKPGTWRGSLDESSLGFGYPKFISHQDIRKRNYVRDDAVFIRAAVELPRKILS
# Legend:
# Flag-HA-TRAF4 WT [1] = biological target: T1, Flag-HA-TRAF4 WT (UniProt Q9BUZ4); assay: co-IP; normal lung fibroblasts, with or without irradiation; IP assay of Supplementary Fig. 1 (antibody and constructs not told in the text shown)
# T1 sequence (chain, K63-linkage poly-ubiquitination after irradiation (sites not stated)): B2 chain
# Flag-HA-TRAF4 WT [2] = biological target: T1, Flag-HA-TRAF4 WT; assay: co-IP; normal lung fibroblasts transfected with mock, Flag-HA-TRAF4 WT or dR, with or without irradiation (2 Gy); lysates precipitated with anti-Flag antibody and protein G-agarose, Western blotting
Molecule,binding (Flag-HA-TRAF4 WT [1]),binding (Flag-HA-TRAF4 WT [2])
SMURF2 (from UniProt Q9HAU4 1-748) (enzyme),binds,–
B1,binds,–
B2,–,binds
